According to PubChem BioAssay AID588497 (NMMLSC, 2011):
Out of some 360,000 compounds screened, about 780 (0.22%) were called active. Inconclusive results, whose numbers are uncertain, are shown with a selection of clear calls. No stated cut-off is given here; in the data, active means inhibition above about 35% (passing the limit was not always enough); inconclusive means no clear call, values can overlap the other calls.

These compounds were tested on Botulinum neurotoxin type F light chain protease (Clostridium botulinum) (assay: BoNT/F light chain protease inhibitors, primary screen, biochemical, flow cytometry, MLPCN library (AID 588497; further: plate controls were buffer without enzyme for full effect and enzyme alone for no effect)). Conditions: Multiplex microsphere protease cleavage assay, at 10 µM, stronger effect = higher value.

SMILES	inhibition
CC1CCCN(Cc2nc3c(c(=O)n(C)c(=O)n3C)n2CC(N)=O)C1 (centres undefined)	inactive: -4.5%
Cc1ccc(CNC(=O)CN(C2CCCCC2)S(C)(=O)=O)cc1	inconclusive: -22.5%
CC(=O)Nc1ccc(S(=O)(=O)Nc2c(C)n(C)n(-c3ccccc3)c2=O)cc1	inconclusive: 8.4%
Cc1cc(C)cc(N=C2NC(=O)CS2)c1	inconclusive: -18.8%
CCOC(=O)c1c(N)sc2c1CCCC2=O	inconclusive: -35.7%
COc1ccc(S(=O)(=O)N2CCN(C)CC2)cc1	active: 73.9%
CC1(C)Cc2nc3scc(NC(=O)c4ccccc4)c3cc2CO1	inconclusive: -4.3%
CNS(=O)(=O)c1ccc2c3c(cccc13)C(=O)N2	inactive: 7%
Cc1ccc(NC(=O)CCN2C(=O)c3cccc([N+](=O)[O-])c3C2=O)c(Br)c1	inconclusive: -16.1%
COc1ccc(C(=O)OCC(=O)NCC2CCCCC2)c(OC)c1	inactive: 1.5%
OCC1(CCOc2ccccc2)CCN(Cc2ccncc2)CC1	inconclusive: -34%
CN(C)c1ccc(CCc2ccc(N)cc2)cc1	inconclusive: -1.8%
CCOC(=O)CSc1nc(C)c2cccc(C)c2n1	inconclusive: 100%
Cc1nc(C(=O)NCCCO)cc2c1[nH]c1ccccc12	inconclusive: -29.6%
Cc1ccc(N2C(=O)N(CC(=O)Nc3ccc([N+](=O)[O-])cc3)C(=O)C2C)cc1 (centres undefined)	inactive: -13.3%
C/C(=N\Nc1cc(N2CCOCC2)nc(C)n1)c1ccc(F)cc1	inconclusive: -23.3%
CCOc1ccc(CC2CC(=O)NC2=O)cc1 (centres undefined)	inconclusive: -29.1%
CCCC(=O)NC(c1ccccc1Cl)c1ccc2cccnc2c1O (centres undefined)	inconclusive: 13%
COc1ccc(-n2nnnc2SCC(=O)NC2CCS(=O)(=O)C2)cc1 (centres undefined)	inconclusive: 1%
Cn1nc(C(C)(C)C)cc1C(=O)NNC(=O)c1cccc(Cl)c1	inconclusive: 39.7%
CC1=NN(C(C#N)c2ccccc2O)C(C)(C)C1 (centres undefined)	inactive: 1.9%
O=C(CN1C(=O)c2ccccc2S1(=O)=O)N1CCN(c2ccccc2F)CC1	inconclusive: 19.3%
COc1cccc(-c2noc(C3CCCN(C(=O)c4ccccc4OC)C3)n2)c1 (centres undefined)	inconclusive: 9%
Cc1ccc(OCC(=O)N/N=C/c2ccccc2)c([N+](=O)[O-])c1	inactive: -2.1%

Retrieved by structure from the list above, 6 records:
SMILES	inhibition
Cc1cc(C)cc(N=C2NC(=O)CS2)c1	inconclusive: -18.8%
Cc1ccc(N2C(=O)N(CC(=O)Nc3ccc([N+](=O)[O-])cc3)C(=O)C2C)cc1 (centres undefined)	inactive: -13.3%
COc1ccc(C(=O)OCC(=O)NCC2CCCCC2)c(OC)c1	inactive: 1.5%
CCOC(=O)c1c(N)sc2c1CCCC2=O	inconclusive: -35.7%
CCOc1ccc(CC2CC(=O)NC2=O)cc1 (centres undefined)	inconclusive: -29.1%
CC1CCCN(Cc2nc3c(c(=O)n(C)c(=O)n3C)n2CC(N)=O)C1 (centres undefined)	inactive: -4.5%

Next compounds

SMILES	inhibition
O=C1CCCC2=C1C(c1ccncc1)n1c(nc3ccccc31)N2 (centres undefined)	inactive: -1.8%
O=C(Cc1cccc2ccccc12)NNC(=O)Nc1ccc(Cl)cc1	inconclusive: -17%
CCOC(=O)c1cc2c(=O)n3cccc(C)c3nc2n(CC(C)C)c1=NC(=O)c1ccco1	inconclusive: -55.7%
Oc1ccccc1-c1cc(-c2ccc(F)cc2)n[nH]1	inconclusive: -41.4%
CCCCc1c(O)nc(SCC(=O)c2ccccc2)n(-c2ccccc2OC)c1=O	inconclusive: 0.4%
COc1cc(C(=O)NCc2cc3ccccc3n2C)cc(OC)c1OC	inconclusive: 1.3%
CCOc1ccc(-n2c(SCC(=O)NC)nnc2-c2ccco2)cc1	inconclusive: -1.7%
O=C(NC(=O)C(F)(F)F)Nc1ccc(S(=O)(=O)Nc2nccs2)cc1	inconclusive: 12.7%
COc1ccc(C(=O)C2CCCN(C(=O)CSC)C2)cc1OC (centres undefined)	inconclusive: -6.9%
N#CCSc1nc2sc3c(c2c(=O)n1C1CCCCC1)CCCC3	inconclusive: 17.7%
Cc1ccc(NC(=O)CN2CCN(Cc3ccccc3)CC2)cc1	inconclusive: -1.6%
O=S(=O)(Nc1ccc(-n2cccc2)cc1)c1ccc(Cl)c(Cl)c1	inconclusive: 11.4%
CC(=O)c1ccc(OCCCC(=O)OCC(=O)N2CCN(S(=O)(=O)c3ccc(C)cc3C)CC2)cc1	inactive: 1.3%
Cc1c(C(=O)N2CCOCC2)oc2c1C(=O)CC(C)(C)C2	inactive: -4.8%
Cc1cc(C)cc(NC(=O)c2sc3nc(C)cc(C)c3c2N)c1	inconclusive: 28.3%
CCOC(=O)CCCCC(=O)c1[nH]c(=O)[nH]c1CN1CCOCC1	active: 58.8%
O=C(C[n+]1cc(-c2ccc(Cl)c(Cl)c2)n2c1CCC2)c1cccs1	inconclusive: 111%
COc1ccc(N2CCN(C3CCCN(C(=O)CSC)C3)CC2)cc1 (centres undefined)	inconclusive: 30.7%
CC(C)NC(=S)N/N=C/c1cccnc1	inconclusive: 4.7%
COc1cc(/C=N/NC(=O)c2cc[n+]([O-])cc2)cc(OC)c1OC	inactive: -15.9%
CS(=O)(=O)N(CC(=O)N1CCCC1)c1ccccc1F	inconclusive: 5.1%
O=C(/C=C/c1cccc(Cl)c1)NCc1ccncc1	inactive: -2.7%
COc1ccc(COC(=O)C2CCN(S(=O)(=O)c3ccc(F)cc3)CC2)cc1	inconclusive: 10%
CCC(=O)c1ccc(N2CCN(C(=O)c3cccs3)CC2)c(F)c1	inconclusive: -10.6%

SMILES	inhibition
CCOC(=O)c1nnn(-c2nonc2-n2cccc2)c1C	inconclusive: -53%
COC(=O)c1ccc(COc2ccc(/C=N/NC(N)=S)cc2)o1	inactive: 5.1%
CC(=O)Nc1ccc(S(=O)(=O)NNc2ccc([N+](=O)[O-])cc2)cc1	inconclusive: 33.1%
COc1ccc(C=CC(C)=NNC(=O)c2ccncc2)cc1	inactive: -1.9%
O=C1NC[C@@H](Cc2cccc3ccccc23)N(CC2(c3ccccc3)CC2)C1=O	inactive: 6.1%
Cc1cc(C)n(S(=O)(=O)c2ccc(F)cc2)n1	inconclusive: -63%
COc1ccc(OC)c(NC(=O)c2ccc(NC3=NC4CS(=O)(=O)CC4S3)cc2)c1 (centres undefined)	inactive: -18.3%
COC(=O)CCC(=O)N1CCCC(C(=O)c2ccc(Cl)cc2C)C1 (centres undefined)	inconclusive: -27.2%
CC(C)(C)NC(=O)CN(Cc1cccs1)C(=O)C1COc2ccccc2O1 (centres undefined)	inactive: -1.3%
CC(C)C(=O)Nc1nnc(Cc2c[nH]c3ccccc23)s1	inconclusive: -27.7%
O=c1cc(Cl)c(-c2ccccc2)nn1Cc1ccc(Cl)cc1	inactive: 4.4%
CC(=O)c1ccc(N2CCN(C(=O)CCS(=O)(=O)c3ccc4c(c3)NC(=O)CS4)CC2)cc1	inactive: 1.6%
CC(NC(=O)c1ccccc1F)C(=O)O (centres undefined)	inconclusive: -59.6%
Cc1cc(C)n(C(=O)COc2c(C)cccc2C)n1	active: 47.2%
CCc1ccc(N(CC(=O)NC2CC2)S(=O)(=O)c2ccc(C)cc2)cc1	inactive: -3.5%
CCN1CCN(C(=S)NC(CC(=O)c2ccccc2)c2ccccc2)CC1 (centres undefined)	inconclusive: -12.1%
Cc1cc(C)cc(NC(=O)c2cccnc2)c1	inconclusive: 13.5%
Nc1nnnn1/N=C/c1cc(Cl)ccc1O	inconclusive: -6%
O=C(COC(=O)c1ccc(O)cc1)NC1CCCCCCC1	inactive: 2.4%
COc1ccc(C(=O)NC(=C(Cl)Cl)S(=O)(=O)c2ccc(C)cc2)cc1	inactive: 2.7%
O=C1CCC(=O)N1c1ccccc1	inconclusive: 34.7%
O=C(c1cccc(Br)c1)N1CCCC1	inactive: 1.2%
COC(C(=O)Nc1ccc(NC(=O)C(OC)c2ccccc2)cc1)c1ccccc1 (centres undefined)	inconclusive: 3.1%
C/C(=N\O)C(C)(C)Nc1ccc(F)cc1	inconclusive: 13.8%

SMILES	inhibition
COc1ccc(NS(=O)(=O)c2cn(C)cn2)cc1	inconclusive: -74.1%
Cc1ccc(C)c(N(CC(=O)N2CCCCCC2)S(C)(=O)=O)c1	inconclusive: 1.6%
Cc1cc(C(=O)COC(=O)c2ccc3c(c2)NC(=O)CS3)c(C)n1CCc1ccc(Cl)cc1	inactive: 0.5%
COc1ccc(Br)cc1CNCC1CCCO1 (centres undefined)	inconclusive: -11.2%
COc1ccc(C(OC(=O)c2ccco2)C(=O)NC(C)(C)C)cc1OC (centres undefined)	inconclusive: -17.7%
CCOC(=O)C1=C(C)N=c2s/c(=C/c3ccc(OCC(=O)O)c(OC)c3)c(=O)n2C1c1ccc(Cl)cc1 (centres undefined)	inconclusive: 120%
COc1ccc(-c2csc(N(Cc3ccccc3)C(=O)COc3ccc(Cl)cc3)n2)cc1	inactive: -5%
CCN1CCN(CCCNC(=O)c2cc3cc4ccc(OC)cc4nc3o2)CC1	inconclusive: 15%
CC(=O)Nc1ccc(S(=O)(=O)NCCC(=O)Nc2ncccc2C)cc1	inconclusive: 23.3%
Brc1ccccc1Cn1cnc2ccccc21	inconclusive: -18.3%
Cc1[nH]c2ccccc2c1/C=N/Nc1nc(Nc2ccc(F)cc2)nc(N2CCOCC2)n1	inconclusive: -67.7%
CC(C)(C)C(=O)O/N=C(\N)Cc1ccc(-c2csnn2)cc1	inconclusive: 23.2%
Cc1cc(-c2onc(C)c2C(=O)O)no1	inconclusive: 13.8%
Cc1cc2nc(-c3ccc[nH]c3=O)[nH]c2cc1C	inconclusive: -5.7%
O=S(=O)(c1ccc(-c2ccon2)s1)N1CCOCC1	inconclusive: -31.9%
COc1cccc(CN2CCC(C(=O)NC(C)c3cccc4ccccc34)CC2)c1 (centres undefined)	inactive: -12.2%
CN(C)c1ccc(/C=C/[N+](=O)[O-])cc1	active: 48.1%
O=[N+]([O-])c1cc(C(F)(F)F)ccc1NCC1CCCO1 (centres undefined)	inconclusive: 9.9%
O=C1Nc2ccccc2/C1=C/c1ccccc1F	inactive: 0.7%
CCN(CC)c1ccc(Nc2nc(N3CCOCC3)c3ccccc3n2)cc1	inactive: -4.6%
Cc1c(CCC(C)C)c(=O)n2c([nH]c3ccccc32)c1C#N	inactive: 3.7%
COc1cc2c(cc1OC)[C@@H]1C(=O)c3ccc4c(c3O[C@@H]1CO2)C[C@H](C(C)C)O4	inconclusive: 13.7%
